From the supplement of paper PMC10331698
± gives the standard deviation of the averaged measurements. Most entries show no effect beyond the scatter of the controls.

Columns and labels:
Test in all cases: level (log10 ratio to DMSO vehicle control); higher = higher biomarker level / cell amount than vehicle control
[1] = compound: C=C(C)C(=O)OCC(F)(F)C(F)(F)C(F)(F)C(F)(F)C(F)(F)C(F)(F)C(F)(F)F; conditions: in DMSO
Protocol: (§1)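 BioMAP Diversity Plus panel of 12 human primary cell co-culture systems (3C, 4H, LPS, SAg, BT, BF4T, BE3C, CASM3C, HDF3CGF, KF3CT, MyoF, Mphg). Compounds were added 1 h before stimulation and left for 24 h (MyoF 48 h; BT 72 h for soluble read-outs or 6 d for IgG). Biomarkers were read by ELISA, cytotoxicity by SRB, PBMC viability and proliferation by Alamar Blue. Each well value was divided by the mean of 8 DMSO control wells on the same plate and log10 transformed; duplicate blinded samples were tested at 4 concentrations.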

[2] = compound: C=CC(=O)OCC(F)(F)C(F)(F)C(F)(F)C(F)(F)C(F)(F)C(F)(F)C(F)(F)F [1H,1H-Perfluorooctyl acrylate]; conditions: 2200 nM; in DMSO
Protocol: as §1

[3] = compound: C=CC(F)(F)C(F)(F)C(F)(F)C(F)(F)C(F)(F)C(F)(F)C(F)(F)C(F)(F)C=C [1,8-Divinylperfluorooctane]; conditions: in DMSO
Protocol: as §1

[4] = compound: COC(=O)C(F)(F)C(F)(F)OC(F)(C(F)(F)F)C(F)(F)OC(F)=C(F)F [Methyl perfluoro(3-(1-ethenyloxypropan-2-yloxy)propanoate)]; conditions: in DMSO
Protocol: as §1

[5] = compound: CO[Si](C)(CCC(F)(F)C(F)(F)C(F)(F)C(F)(F)C(F)(F)C(F)(F)F)OC [Dimethoxymethyl((perfluorohexyl)ethyl)silane]; conditions: in DMSO
Protocol: as §1

[6] = compound: FC(F)(F)C(F)(F)C(F)(F)CC1CO1 [1H,1H-Heptafluorobutyl epoxide]; conditions: 2200 nM; in DMSO
Protocol: as §1

Heptafluorobutyl iodide = compound: FC(F)(F)C(F)(F)C(F)(F)CI [Heptafluorobutyl iodide]; conditions: 2200 nM; in DMSO
Protocol: as §1

[7] = compound: NC(=O)C(F)(F)C(F)(F)C(F)(F)C(F)F; conditions: in DMSO
Protocol: as §1

Pentafluoropropionamide = compound: NC(=O)C(F)(F)C(F)(F)F [Pentafluoropropionamide]; conditions: 2200 nM; in DMSO
Protocol: as §1

[8] = compound: NS(=O)(=O)C(F)(F)C(F)(F)C(F)(F)C(F)(F)C(F)(F)C(F)(F)C(F)(F)C(F)(F)F [Perfluorooctanesulfonamide]; conditions: in DMSO
Protocol: as §1

[9] = compound: O=C(O)C(F)(F)C(F)(F)C(F)F [4H-Perfluorobutanoic acid]; conditions: in DMSO
Protocol: as §1

[10] = compound: O=P(O)(O)CCC(F)(F)C(F)(F)C(F)(F)C(F)(F)C(F)(F)C(F)(F)F [2-(Perfluorohexyl)ethylphosphonic acid]; conditions: 2200 nM; in DMSO
Protocol: as §1

[11] = compound: O=S(=O)(F)C(F)(F)C(F)(F)C(F)(F)C(F)(F)C(F)(F)C(F)(F)C(F)(F)C(F)(F)F [Perfluorooctanesulfonyl fluoride]; conditions: 2200 nM; in DMSO
Protocol: as §1

[12] = compound: O=S(=O)(O)C(F)(F)C(F)(F)C(F)(F)C(F)(F)C(F)(F)C(F)(F)C(F)(F)C(F)(F)F [Perfluorooctanesulfonic acid]; conditions: 2200 nM; in DMSO
Protocol: as §1

[13] = compound: O=S(=O)(O)C(F)(F)C(F)(F)C(F)(F)C(F)(F)C(F)(F)C(F)(F)C(F)(F)C(F)(F)F [Potassium perfluorooctanesulfonate]; conditions: 2200 nM; in DMSO
Protocol: as §1

[14] = compound: O=S(=O)(OCC(F)(F)F)C(F)(F)C(F)(F)C(F)(F)C(F)(F)F [2,2,2-Trifluoroethyl perfluorobutanesulfonate]; conditions: 2200 nM; in DMSO
Protocol: as §1

[15] = compound: OCC(F)(F)C(F)(F)C(F)(F)C(F)(F)C(F)(F)C(F)F [1H,1H,7H-Dodecafluoro-1-heptanol]; conditions: 2200 nM; in DMSO
Protocol: as §1

[16] = compound: OCCCCC(F)(F)C(F)(F)C(F)(F)C(F)(F)F [4:4 Fluorotelomer alcohol]; conditions: 2200 nM; in DMSO
Protocol: as §1

Test System: HDF3CGF:Proliferation 72hr
- level (log10) ([1]; 740 nM): -0.0115 ± 0.032
- level (log10) ([1]; 2200 nM): 0.001 ± 0.068
- level (log10) [2]: 0.0065 ± 0.03
- level (log10) ([3]; 740 nM): -0.034 ± 0.083
- level (log10) ([3]; 2200 nM): 0.019 ± 0.1
- level (log10) ([4]; 740 nM): 0.0105 ± 0.032
- level (log10) ([4]; 2200 nM): 0.057 ± 0.016
- level (log10) ([5]; 740 nM): -0.0335 ± 0.1
- level (log10) ([5]; 2200 nM): -0.0025 ± 0.066
- level (log10) [6]: -0.102 ± 0.013
- level (log10) (Heptafluorobutyl iodide): -0.026 ± 0.023
- level (log10) ([7]; 2200 nM): -0.0025 ± 0.067
- level (log10) ([7]; 6700 nM): -0.0005 ± 0.046
- level (log10) ([7]; 20000 nM): -0.0245 ± 0.06
- level (log10) ([7]; 60000 nM): -0.0205 ± 0.037
- level (log10) (Pentafluoropropionamide): -0.0625 ± 0.026
- level (log10) ([8]; 2200 nM): -0.019 ± 0.023
- level (log10) ([8]; 6700 nM): 0.0105 ± 0.036
- level (log10) ([8]; 20000 nM): -0.58 ± 0.15
- level (log10) ([9]; 2200 nM): -0.0005 ± 0.029
- level (log10) ([9]; 6700 nM): -0.0415 ± 0.012
- level (log10) ([9]; 20000 nM): -0.03 ± 0.0042
- level (log10) ([9]; 60000 nM): 0.066 ± 0.02
- level (log10) [10]: -0.0345 ± 0.0035
- level (log10) [11]: -0.007 ± 0.024
- level (log10) [12]: 0.0385 ± 0.12
- level (log10) [13]: 0.0575 ± 0.074
- level (log10) [14]: -0.02 ± 0.031
- level (log10) [15]: -0.065 ± 0.062
- level (log10) [16]: 0.0115 ± 0.0078

Test System: HDF3CGF:SRB
- level (log10) ([1]; 740 nM): -0.0135 ± 0.056
- level (log10) ([1]; 2200 nM): 0 ± 0.017
- level (log10) [2]: 0.031 ± 0.024
- level (log10) ([3]; 740 nM): -0.0205 ± 0.0021
- level (log10) ([3]; 2200 nM): -0.0225 ± 0.043
- level (log10) ([4]; 740 nM): 0.021 ± 0.0085
- level (log10) ([4]; 2200 nM): -0.002 ± 0.027
- level (log10) ([5]; 740 nM): -0.0235 ± 0.052
- level (log10) ([5]; 2200 nM): -0.0235 ± 0.067
- level (log10) [6]: -0.0295 ± 0.013
- level (log10) (Heptafluorobutyl iodide): -0.018 ± 0.02
- level (log10) ([7]; 2200 nM): 0.0175 ± 0.03
- level (log10) ([7]; 6700 nM): -0.007 ± 0.0042
- level (log10) ([7]; 20000 nM): 0.0065 ± 0.016
- level (log10) ([7]; 60000 nM): -0.0035 ± 0.015
- level (log10) (Pentafluoropropionamide): -0.0245 ± 0.035
- level (log10) ([8]; 2200 nM): -0.0215 ± 0.03
- level (log10) ([8]; 6700 nM): -0.028 ± 0.055
- level (log10) ([8]; 20000 nM): 0.0615 ± 0.019
- level (log10) ([9]; 2200 nM): -0.0275 ± 0.015
- level (log10) ([9]; 6700 nM): -0.0125 ± 0.06
- level (log10) ([9]; 20000 nM): -0.0095 ± 0.0035
- level (log10) ([9]; 60000 nM): 0.0155 ± 0.022
- level (log10) [10]: -0.0225 ± 0.012
- level (log10) [11]: 0.014 ± 0.0028
- level (log10) [12]: 0.0065 ± 0.036
- level (log10) [13]: -0.0255 ± 0.013
- level (log10) [14]: 0.026 ± 0.013
- level (log10) [15]: -0.057 ± 0.014
- level (log10) [16]: -0.0165 ± 0.056

Test System: HDF3CGF:TIMP-1
- level (log10) ([1]; 740 nM): 0.012 ± 0.075
- level (log10) ([1]; 2200 nM): 0.0225 ± 0.042
- level (log10) [2]: -0.0125 ± 0.026
- level (log10) ([3]; 740 nM): 0.016 ± 0.05
- level (log10) ([3]; 2200 nM): -0.005 ± 0.0014
- level (log10) ([4]; 740 nM): -0.006 ± 0.0028
- level (log10) ([4]; 2200 nM): 0.008 ± 0.0042
- level (log10) ([5]; 740 nM): -0.015 ± 0.027
- level (log10) ([5]; 2200 nM): -0.016 ± 0.014
- level (log10) [6]: -0.0155 ± 0.05
- level (log10) (Heptafluorobutyl iodide): 0.0105 ± 0.025
- level (log10) ([7]; 2200 nM): -0.015 ± 0.025
- level (log10) ([7]; 6700 nM): -0.0005 ± 0.0064
- level (log10) ([7]; 20000 nM): -0.0095 ± 0.043
- level (log10) ([7]; 60000 nM): 0.0045 ± 0.039
- level (log10) (Pentafluoropropionamide): 0.017 ± 0.045
- level (log10) ([8]; 2200 nM): 0.0105 ± 0.012
- level (log10) ([8]; 6700 nM): 0.065 ± 0.068
- level (log10) ([8]; 20000 nM): -0.138 ± 0.15
- level (log10) ([9]; 2200 nM): -0.008 ± 0.031
- level (log10) ([9]; 6700 nM): -0.015 ± 0.031
- level (log10) ([9]; 20000 nM): -0.007 ± 0.0014
- level (log10) ([9]; 60000 nM): 0.0115 ± 0.021
- level (log10) [10]: 0.0345 ± 0.03
- level (log10) [11]: -0.0125 ± 0.025
- level (log10) [12]: -0.002 ± 0.03
- level (log10) [13]: 0.0185 ± 0.025
- level (log10) [14]: 0.002 ± 0.018
- level (log10) [15]: -0.0025 ± 0.021
- level (log10) [16]: 0.016 ± 0.058

Test System: HDF3CGF:TIMP-2
- level (log10) ([1]; 740 nM): 0.0095 ± 0.046
- level (log10) ([1]; 2200 nM): 0.0015 ± 0.00071
- level (log10) [2]: 0.0025 ± 0.016
- level (log10) ([3]; 740 nM): -0.0075 ± 0.025
- level (log10) ([3]; 2200 nM): -0.0215 ± 0.0078
- level (log10) ([4]; 740 nM): -0.008 ± 0.023
- level (log10) ([4]; 2200 nM): -0.0245 ± 0.022
- level (log10) ([5]; 740 nM): -0.0455 ± 0.066
- level (log10) ([5]; 2200 nM): -0.051 ± 0.068
- level (log10) [6]: -0.0395 ± 0.098
- level (log10) (Heptafluorobutyl iodide): 0.0005 ± 0.026
- level (log10) ([7]; 2200 nM): -0.0165 ± 0.039
- level (log10) ([7]; 6700 nM): 0.015 ± 0.025
- level (log10) ([7]; 20000 nM): 0.027 ± 0.033
- level (log10) ([7]; 60000 nM): 0.003 ± 0.0028
- level (log10) (Pentafluoropropionamide): -0.001 ± 0.0014
- level (log10) ([8]; 2200 nM): -0.0395 ± 0.00071
- level (log10) ([8]; 6700 nM): -0.0545 ± 0.0021
- level (log10) ([8]; 20000 nM): -0.102 ± 0.044
- level (log10) ([9]; 2200 nM): -0.019 ± 0.0085
- level (log10) ([9]; 6700 nM): -0.0295 ± 0.066
- level (log10) ([9]; 20000 nM): -0.01 ± 0.044
- level (log10) ([9]; 60000 nM): -0.003 ± 0.059
- level (log10) [10]: -0.0485 ± 0.069
- level (log10) [11]: 0.0045 ± 0.015
- level (log10) [12]: -0.046 ± 0.0028
- level (log10) [13]: -0.0235 ± 0.029
- level (log10) [14]: -0.023 ± 0.031
- level (log10) [15]: -0.0055 ± 0.015
- level (log10) [16]: 0.0115 ± 0.032
